Publication doi:10.1101/725044
Read-outs that look alike come from different tables or passages of the source. No constants are given. Whether binding was seen depends on the method and setting. For part of these data: In cells and extracts the contact can be indirect. Some binding calls cover weakened binding; strength is not graded here.

The chains behind the UniProt entries cited, without tags or fusion partners. Where a name states a change or a piece, a line headed by the entry shows the natural chain unless it says otherwise. Residues count along the entry.
UniProt P43694: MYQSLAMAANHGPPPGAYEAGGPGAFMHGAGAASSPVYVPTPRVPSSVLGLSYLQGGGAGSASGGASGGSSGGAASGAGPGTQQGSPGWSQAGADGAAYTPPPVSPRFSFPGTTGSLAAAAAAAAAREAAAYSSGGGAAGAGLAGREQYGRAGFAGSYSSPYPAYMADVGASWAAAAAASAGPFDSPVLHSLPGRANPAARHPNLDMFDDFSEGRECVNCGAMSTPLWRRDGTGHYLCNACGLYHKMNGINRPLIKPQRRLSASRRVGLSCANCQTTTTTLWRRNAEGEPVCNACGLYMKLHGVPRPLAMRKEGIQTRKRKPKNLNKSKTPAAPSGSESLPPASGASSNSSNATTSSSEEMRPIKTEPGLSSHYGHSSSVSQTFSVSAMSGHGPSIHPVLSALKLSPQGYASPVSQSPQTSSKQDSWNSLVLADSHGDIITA
GATA4 C-terminal zinc finger region (a.a. 251-350): residues 251-350 of P43694
UniProt Q8N6T7: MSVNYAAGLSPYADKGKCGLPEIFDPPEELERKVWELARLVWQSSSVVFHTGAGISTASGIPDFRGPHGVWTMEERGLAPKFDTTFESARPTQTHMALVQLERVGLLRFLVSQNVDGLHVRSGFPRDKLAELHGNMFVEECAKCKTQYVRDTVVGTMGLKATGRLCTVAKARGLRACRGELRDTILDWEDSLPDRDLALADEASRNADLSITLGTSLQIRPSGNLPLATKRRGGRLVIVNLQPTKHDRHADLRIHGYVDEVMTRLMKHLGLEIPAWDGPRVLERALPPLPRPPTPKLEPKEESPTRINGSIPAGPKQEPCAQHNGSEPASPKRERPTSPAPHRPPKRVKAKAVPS
UniProt Q92993: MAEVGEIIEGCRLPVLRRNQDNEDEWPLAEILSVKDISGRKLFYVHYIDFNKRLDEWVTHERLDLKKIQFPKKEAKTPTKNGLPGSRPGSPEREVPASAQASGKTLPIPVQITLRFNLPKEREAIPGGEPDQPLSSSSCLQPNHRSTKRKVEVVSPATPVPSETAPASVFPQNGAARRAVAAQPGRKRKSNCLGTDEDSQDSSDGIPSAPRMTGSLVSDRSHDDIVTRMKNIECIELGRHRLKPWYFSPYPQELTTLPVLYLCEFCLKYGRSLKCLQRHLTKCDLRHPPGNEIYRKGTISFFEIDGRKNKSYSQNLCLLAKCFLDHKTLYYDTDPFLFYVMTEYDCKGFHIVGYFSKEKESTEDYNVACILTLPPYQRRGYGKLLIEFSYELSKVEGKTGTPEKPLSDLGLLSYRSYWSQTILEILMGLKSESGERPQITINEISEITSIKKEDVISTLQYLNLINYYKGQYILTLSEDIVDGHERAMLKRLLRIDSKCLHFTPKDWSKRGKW

Assays:
[1] = molecular target: HA-GATA4 (UniProt P43694); test: co-IP
[2] = molecular target: HA-SIRT6 (UniProt Q8N6T7); test: co-IP
[3] = molecular target: GST-tagged SIRT6 (UniProt Q8N6T7); test: pull-down
[4] = molecular target: Flag-Tip60 (UniProt Q92993); test: co-IP
[5] = molecular target: Flag-GATA4 (UniProt P43694); test: co-IP
[6] = molecular target: Flag-Tip60 (UniProt Q92993); test: co-IP; remark: listed apart in the source
[7] = molecular target: GATA4 C-terminal zinc finger region (a.a. 251-350) (UniProt P43694); test: co-IP
[8] = molecular target: GATA4 (UniProt P43694); test: co-IP

Substance	binding [6]	binding [8]	further results
Flag-SIRT6 (from UniProt Q8N6T7 1-355)	–	–	binding [1]: binds
GATA4 (from UniProt P43694 1-442)	–	–	binding [2]: binds
His-tagged GATA4 (from UniProt P43694 1-442)	–	–	binding [3]: binds
SIRT6 (from UniProt Q8N6T7 1-355)	binds	–	binding [4]: binds; binding [5]: binds; binding [7]: binds
SIRT6 D63Y (from UniProt Q8N6T7 1-355)	binds	binds	–
SIRT6 D116N (from UniProt Q8N6T7 1-355)	binds	binds	–
SIRT6 H133Y (from UniProt Q8N6T7 1-355)	–	no binding	–
